In PMC4770246:
No constants are given. Whether binding was seen depends on the method and setting.

Sequences of proteins named here, by UniProt entry; tags and fusion partners are left off.
UniProt Q1LZ83: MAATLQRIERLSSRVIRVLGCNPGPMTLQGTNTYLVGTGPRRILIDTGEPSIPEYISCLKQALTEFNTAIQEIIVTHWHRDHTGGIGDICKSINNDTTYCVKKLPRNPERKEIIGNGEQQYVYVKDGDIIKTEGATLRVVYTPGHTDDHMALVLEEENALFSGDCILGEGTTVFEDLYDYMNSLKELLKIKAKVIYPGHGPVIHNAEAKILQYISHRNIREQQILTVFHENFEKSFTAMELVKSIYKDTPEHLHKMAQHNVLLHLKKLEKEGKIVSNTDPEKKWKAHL

Target: Endogenous bovine LACTB2 in mitochondrial matrix extract from bovine liver (bovine (endogenous in bovine liver)) (UniProt Q1LZ83)
Assay: SEC; soluble proteins of bovine liver mitochondrial matrix fractionated on Superdex 200; LACTB2 detected in fractions by immunoblot; size markers 669, 232, 67, 35 and 13 kDa

- binding: no binding
Substance: Endogenous bovine LACTB2 in mitochondrial matrix extract from bovine liver (from UniProt Q1LZ83 1-288) (enzyme)
